{"sequences": {"note": "Amino acid sequences for entries named in this document (tags omitted). A change or cut given only in a name is not applied to a line headed by its entry.", "UniProt Q3UP75": "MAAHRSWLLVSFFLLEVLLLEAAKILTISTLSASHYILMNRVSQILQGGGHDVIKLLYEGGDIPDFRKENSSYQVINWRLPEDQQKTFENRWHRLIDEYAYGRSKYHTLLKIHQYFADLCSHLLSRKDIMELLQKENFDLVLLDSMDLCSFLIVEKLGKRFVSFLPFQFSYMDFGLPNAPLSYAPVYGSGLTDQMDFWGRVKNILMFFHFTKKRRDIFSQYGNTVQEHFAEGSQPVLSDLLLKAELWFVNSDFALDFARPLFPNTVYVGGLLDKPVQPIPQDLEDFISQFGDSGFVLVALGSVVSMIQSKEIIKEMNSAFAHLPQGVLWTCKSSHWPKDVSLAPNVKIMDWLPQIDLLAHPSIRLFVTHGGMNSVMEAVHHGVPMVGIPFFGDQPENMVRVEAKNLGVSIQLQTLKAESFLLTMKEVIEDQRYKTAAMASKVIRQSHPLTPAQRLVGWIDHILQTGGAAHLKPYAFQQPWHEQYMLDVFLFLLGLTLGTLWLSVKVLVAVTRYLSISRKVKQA", "UniProt Q3UV17": "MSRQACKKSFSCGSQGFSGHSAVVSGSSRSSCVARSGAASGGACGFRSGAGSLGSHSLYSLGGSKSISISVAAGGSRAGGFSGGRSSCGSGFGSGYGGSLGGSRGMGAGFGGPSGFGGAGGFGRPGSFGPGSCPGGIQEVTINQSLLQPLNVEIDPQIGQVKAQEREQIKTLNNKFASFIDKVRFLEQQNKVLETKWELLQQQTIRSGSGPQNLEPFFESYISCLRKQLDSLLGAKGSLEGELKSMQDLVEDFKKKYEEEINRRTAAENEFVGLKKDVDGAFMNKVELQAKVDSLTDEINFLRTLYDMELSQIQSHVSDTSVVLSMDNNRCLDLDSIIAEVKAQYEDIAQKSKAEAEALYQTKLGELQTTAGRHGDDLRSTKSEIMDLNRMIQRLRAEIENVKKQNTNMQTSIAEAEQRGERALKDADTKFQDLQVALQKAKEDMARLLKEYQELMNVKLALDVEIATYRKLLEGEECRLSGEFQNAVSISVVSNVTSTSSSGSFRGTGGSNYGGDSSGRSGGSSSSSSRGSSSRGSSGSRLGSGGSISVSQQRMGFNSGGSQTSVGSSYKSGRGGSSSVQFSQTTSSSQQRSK", "UniProt Q07968": "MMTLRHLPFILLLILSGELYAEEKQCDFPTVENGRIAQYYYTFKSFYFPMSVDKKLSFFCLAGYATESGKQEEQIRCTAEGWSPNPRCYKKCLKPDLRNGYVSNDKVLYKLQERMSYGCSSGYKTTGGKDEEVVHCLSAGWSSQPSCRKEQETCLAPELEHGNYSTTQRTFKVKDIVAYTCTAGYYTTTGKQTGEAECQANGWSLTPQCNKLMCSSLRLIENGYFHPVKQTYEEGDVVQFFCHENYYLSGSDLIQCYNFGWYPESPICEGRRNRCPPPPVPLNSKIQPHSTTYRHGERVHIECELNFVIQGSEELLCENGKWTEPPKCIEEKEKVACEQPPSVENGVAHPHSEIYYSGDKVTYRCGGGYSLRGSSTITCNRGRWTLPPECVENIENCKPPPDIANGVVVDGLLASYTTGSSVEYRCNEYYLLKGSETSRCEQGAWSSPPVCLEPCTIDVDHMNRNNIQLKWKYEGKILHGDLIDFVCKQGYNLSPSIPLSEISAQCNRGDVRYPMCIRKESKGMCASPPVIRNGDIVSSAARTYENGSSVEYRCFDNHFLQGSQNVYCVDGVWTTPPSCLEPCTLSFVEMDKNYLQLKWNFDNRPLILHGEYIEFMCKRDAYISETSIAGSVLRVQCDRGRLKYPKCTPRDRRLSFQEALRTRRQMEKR", "UniProt Q00422": "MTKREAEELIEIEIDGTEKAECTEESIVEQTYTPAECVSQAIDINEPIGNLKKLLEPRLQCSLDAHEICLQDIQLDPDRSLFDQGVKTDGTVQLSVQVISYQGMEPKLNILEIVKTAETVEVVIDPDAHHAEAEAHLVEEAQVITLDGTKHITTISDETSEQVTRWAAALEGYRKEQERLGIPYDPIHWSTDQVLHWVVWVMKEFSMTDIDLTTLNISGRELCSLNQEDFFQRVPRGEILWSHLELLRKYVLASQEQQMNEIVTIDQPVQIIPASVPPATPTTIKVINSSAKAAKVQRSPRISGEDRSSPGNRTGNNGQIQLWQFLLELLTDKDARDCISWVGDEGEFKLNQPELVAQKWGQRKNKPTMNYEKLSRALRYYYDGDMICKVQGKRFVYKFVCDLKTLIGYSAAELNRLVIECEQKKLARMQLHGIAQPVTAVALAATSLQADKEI", "UniProt Q08481": "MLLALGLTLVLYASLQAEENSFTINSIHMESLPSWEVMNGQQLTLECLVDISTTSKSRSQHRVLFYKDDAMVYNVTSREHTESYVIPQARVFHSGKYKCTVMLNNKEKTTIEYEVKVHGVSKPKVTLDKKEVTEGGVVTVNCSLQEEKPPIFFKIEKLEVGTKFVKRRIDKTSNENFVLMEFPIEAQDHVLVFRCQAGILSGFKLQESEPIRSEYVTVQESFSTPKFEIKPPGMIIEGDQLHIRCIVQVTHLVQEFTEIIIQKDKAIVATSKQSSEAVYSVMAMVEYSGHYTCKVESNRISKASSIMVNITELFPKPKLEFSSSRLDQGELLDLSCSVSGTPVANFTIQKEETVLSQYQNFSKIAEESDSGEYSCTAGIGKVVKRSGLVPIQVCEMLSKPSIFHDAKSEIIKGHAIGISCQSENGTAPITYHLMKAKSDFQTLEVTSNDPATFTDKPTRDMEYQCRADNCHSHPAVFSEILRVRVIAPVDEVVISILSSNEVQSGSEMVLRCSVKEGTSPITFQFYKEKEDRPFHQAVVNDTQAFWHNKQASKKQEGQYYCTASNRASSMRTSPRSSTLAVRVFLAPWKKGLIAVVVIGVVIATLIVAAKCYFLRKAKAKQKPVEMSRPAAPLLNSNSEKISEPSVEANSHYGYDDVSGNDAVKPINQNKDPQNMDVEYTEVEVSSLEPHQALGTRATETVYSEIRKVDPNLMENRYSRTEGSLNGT", "UniProt Q5QGU6": "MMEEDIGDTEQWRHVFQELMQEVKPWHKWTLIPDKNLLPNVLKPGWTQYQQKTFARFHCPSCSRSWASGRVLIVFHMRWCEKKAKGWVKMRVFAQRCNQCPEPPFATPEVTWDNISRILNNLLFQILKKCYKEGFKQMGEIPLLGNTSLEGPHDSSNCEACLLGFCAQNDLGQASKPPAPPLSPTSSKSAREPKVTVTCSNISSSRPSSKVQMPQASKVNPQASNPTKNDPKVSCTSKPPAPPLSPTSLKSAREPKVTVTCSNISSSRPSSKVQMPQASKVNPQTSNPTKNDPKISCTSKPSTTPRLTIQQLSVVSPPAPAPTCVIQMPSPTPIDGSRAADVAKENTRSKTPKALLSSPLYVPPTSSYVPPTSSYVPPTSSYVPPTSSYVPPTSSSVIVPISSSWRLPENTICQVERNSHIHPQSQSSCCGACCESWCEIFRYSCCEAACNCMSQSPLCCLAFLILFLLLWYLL", "UniProt Q3TAS6": "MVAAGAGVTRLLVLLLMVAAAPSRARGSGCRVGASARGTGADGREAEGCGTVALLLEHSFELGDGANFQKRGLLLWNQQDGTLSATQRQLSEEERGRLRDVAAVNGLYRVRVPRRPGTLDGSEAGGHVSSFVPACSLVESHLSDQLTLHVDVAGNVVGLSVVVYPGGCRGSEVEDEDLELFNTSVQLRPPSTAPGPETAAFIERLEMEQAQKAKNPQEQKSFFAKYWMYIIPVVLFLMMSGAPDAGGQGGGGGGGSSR", "UniProt Q09200": "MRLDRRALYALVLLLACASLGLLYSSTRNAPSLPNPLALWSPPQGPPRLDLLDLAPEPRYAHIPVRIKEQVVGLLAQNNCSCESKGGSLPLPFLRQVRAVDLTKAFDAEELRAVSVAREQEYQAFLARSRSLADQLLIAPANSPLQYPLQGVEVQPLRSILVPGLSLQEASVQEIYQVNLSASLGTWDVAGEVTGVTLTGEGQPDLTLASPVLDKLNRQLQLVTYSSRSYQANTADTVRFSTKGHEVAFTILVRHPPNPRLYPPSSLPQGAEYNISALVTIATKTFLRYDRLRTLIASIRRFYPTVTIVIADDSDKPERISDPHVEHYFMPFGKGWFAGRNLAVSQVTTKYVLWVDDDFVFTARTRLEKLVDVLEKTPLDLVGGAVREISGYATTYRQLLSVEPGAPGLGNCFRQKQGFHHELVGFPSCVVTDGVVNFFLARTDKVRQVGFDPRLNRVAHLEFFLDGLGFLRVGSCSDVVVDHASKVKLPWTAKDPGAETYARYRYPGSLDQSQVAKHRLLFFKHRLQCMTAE", "UniProt Q00897": "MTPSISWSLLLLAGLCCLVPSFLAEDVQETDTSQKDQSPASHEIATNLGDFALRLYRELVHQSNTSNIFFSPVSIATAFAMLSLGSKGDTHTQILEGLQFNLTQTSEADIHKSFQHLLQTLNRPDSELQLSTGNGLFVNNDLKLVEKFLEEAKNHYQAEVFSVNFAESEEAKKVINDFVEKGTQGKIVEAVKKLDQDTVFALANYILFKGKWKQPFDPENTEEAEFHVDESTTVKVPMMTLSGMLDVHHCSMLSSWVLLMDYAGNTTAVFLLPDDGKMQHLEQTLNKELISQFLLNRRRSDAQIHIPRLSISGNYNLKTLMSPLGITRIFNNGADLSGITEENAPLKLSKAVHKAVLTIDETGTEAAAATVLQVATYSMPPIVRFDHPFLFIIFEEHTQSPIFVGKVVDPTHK", "UniProt Q0VBL3": "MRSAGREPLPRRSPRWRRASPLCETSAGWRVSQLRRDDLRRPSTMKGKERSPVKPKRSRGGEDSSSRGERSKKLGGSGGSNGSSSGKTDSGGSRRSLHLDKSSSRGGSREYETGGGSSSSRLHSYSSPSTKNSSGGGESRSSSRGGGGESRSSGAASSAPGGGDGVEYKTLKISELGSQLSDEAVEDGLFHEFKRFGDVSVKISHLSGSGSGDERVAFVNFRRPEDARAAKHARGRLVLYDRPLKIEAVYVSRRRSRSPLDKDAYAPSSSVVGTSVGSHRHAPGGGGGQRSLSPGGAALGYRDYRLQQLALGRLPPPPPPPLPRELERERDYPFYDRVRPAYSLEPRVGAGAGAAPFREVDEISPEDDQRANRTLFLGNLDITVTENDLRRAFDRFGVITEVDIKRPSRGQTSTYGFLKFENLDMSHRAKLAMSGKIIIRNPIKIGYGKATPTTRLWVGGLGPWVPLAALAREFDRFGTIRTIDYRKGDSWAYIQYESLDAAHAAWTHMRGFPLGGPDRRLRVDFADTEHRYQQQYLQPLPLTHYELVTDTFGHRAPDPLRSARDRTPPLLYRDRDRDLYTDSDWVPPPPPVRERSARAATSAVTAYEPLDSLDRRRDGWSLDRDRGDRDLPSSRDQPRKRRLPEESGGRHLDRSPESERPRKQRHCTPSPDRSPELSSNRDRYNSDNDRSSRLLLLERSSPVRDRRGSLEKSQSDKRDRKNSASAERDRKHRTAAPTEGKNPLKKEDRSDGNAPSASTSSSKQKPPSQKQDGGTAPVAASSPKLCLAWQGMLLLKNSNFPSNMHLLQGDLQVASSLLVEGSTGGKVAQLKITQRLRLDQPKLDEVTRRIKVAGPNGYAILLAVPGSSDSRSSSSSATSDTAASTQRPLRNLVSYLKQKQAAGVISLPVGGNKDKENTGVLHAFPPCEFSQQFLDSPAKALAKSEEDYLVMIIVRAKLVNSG", "UniProt Q00PI9": "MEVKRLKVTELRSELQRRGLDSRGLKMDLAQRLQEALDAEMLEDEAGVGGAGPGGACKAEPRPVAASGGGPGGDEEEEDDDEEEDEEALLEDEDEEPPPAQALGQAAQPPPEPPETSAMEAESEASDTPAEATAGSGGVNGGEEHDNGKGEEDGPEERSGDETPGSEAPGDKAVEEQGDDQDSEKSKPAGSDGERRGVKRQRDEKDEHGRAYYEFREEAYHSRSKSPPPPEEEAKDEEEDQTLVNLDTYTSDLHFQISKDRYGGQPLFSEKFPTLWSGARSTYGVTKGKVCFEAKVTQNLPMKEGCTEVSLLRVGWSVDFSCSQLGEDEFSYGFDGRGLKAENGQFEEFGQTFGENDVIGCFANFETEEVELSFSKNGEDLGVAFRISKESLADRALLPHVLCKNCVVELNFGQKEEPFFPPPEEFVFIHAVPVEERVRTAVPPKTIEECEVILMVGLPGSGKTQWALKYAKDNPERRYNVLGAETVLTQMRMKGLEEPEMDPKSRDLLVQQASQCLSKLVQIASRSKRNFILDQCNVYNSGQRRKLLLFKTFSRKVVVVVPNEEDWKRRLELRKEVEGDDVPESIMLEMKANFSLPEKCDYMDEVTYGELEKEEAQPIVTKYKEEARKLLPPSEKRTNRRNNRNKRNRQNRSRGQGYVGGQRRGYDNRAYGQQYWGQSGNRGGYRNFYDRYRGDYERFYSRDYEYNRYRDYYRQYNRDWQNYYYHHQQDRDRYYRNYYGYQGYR"}, "source": "the supplement of paper PMC12819154", "about": "“High-throughput peptide-centric local stability assay extends protein–ligand identification to membrane proteins, tissues and bacteria” (Nature Structural & Molecular Biology, 2025)", "note": "The other results are listed elsewhere or left out. Most entries show no effect beyond the scatter of the controls."}
{"compound": "CN[C@@H]1C[C@H]2O[C@@](C)([C@@H]1OC)n1c3ccccc3c3c4c(c5c6ccccc6n2c5c31)C(=O)NC4 [staurosporine]", "test": "log2 fold change of pooled soluble protein (PISA), ligand vs vehicle (log2 ratio); higher = more thermally stabilized", "conditions": "ligand concentration: 20 uM; assay format: PISA pool 52.9/55.5/58.6 C"}
{"target": "UniProt Q3UP75", "log2 fold change of pooled soluble protein": 0.158}
{"target": "UniProt Q3UV17", "log2 fold change of pooled soluble protein": -0.415}
{"target": "UniProt Q03265", "log2 fold change of pooled soluble protein": -0.0136}
{"target": "UniProt Q3TQI7", "log2 fold change of pooled soluble protein": -0.0632}
{"target": "UniProt Q3TN34", "log2 fold change of pooled soluble protein": 0.258}
{"target": "UniProt Q5NBX1", "log2 fold change of pooled soluble protein": 0.0483}
{"target": "UniProt Q07968", "log2 fold change of pooled soluble protein": -0.0555}
{"target": "UniProt P97821", "log2 fold change of pooled soluble protein": -0.00461}
{"target": "UniProt Q3TLP5", "log2 fold change of pooled soluble protein": -0.0109}
{"target": "UniProt Q0VEE6", "log2 fold change of pooled soluble protein": -0.336}
{"target": "UniProt Q00422", "log2 fold change of pooled soluble protein": -0.0481}
{"target": "UniProt P97797", "log2 fold change of pooled soluble protein": 0.15}
{"target": "UniProt Q08481", "log2 fold change of pooled soluble protein": 0.0555}
{"target": "UniProt Q5I012", "log2 fold change of pooled soluble protein": -0.23}
{"target": "UniProt Q5BLK4", "log2 fold change of pooled soluble protein": -0.065}
{"target": "UniProt Q5QGU6", "log2 fold change of pooled soluble protein": -0.0264}
{"target": "UniProt Q3TAS6", "log2 fold change of pooled soluble protein": -0.00773}
{"target": "UniProt Q3TWW8", "log2 fold change of pooled soluble protein": -0.0478}
{"target": "UniProt Q4VGL6", "log2 fold change of pooled soluble protein": 0.541}
{"target": "UniProt Q09200", "log2 fold change of pooled soluble protein": -0.0571}
{"target": "Q3T9E4;Q62293", "log2 fold change of pooled soluble protein": -0.124}
{"target": "UniProt Q3U182", "log2 fold change of pooled soluble protein": 0.285}
{"target": "UniProt Q11011", "log2 fold change of pooled soluble protein": -0.0609}
{"target": "UniProt Q01149", "log2 fold change of pooled soluble protein": 0.187}
{"target": "UniProt Q00897", "log2 fold change of pooled soluble protein": -0.0476}
{"target": "UniProt Q3TTY5", "log2 fold change of pooled soluble protein": 0.138}
{"target": "UniProt P97868", "log2 fold change of pooled soluble protein": -0.109}
{"target": "UniProt P97820", "log2 fold change of pooled soluble protein": -0.195}
{"target": "UniProt Q31125", "log2 fold change of pooled soluble protein": 0.205}
{"target": "UniProt Q0VBL3", "log2 fold change of pooled soluble protein": -0.146}
{"target": "UniProt Q3UMR5", "log2 fold change of pooled soluble protein": -0.0873}
{"target": "UniProt Q04750", "log2 fold change of pooled soluble protein": -0.0459}
{"target": "UniProt Q3UHX0", "log2 fold change of pooled soluble protein": 0.0884}
{"target": "UniProt Q3UH66", "log2 fold change of pooled soluble protein": 0.0604}
{"target": "UniProt Q00PI9", "log2 fold change of pooled soluble protein": 0.0687}
{"target": "UniProt Q5FW57", "log2 fold change of pooled soluble protein": 0.12}
